Here are results for 40 compounds from PubChem BioAssay AID2685 (National Center for Advancing Translational Sciences (NCATS), 2010).

The assay can be described thus: qHTS Assay for Lipid Storage Modulators in Drosophila S3 Cells.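 On cell number change: cells counted by Cell Tracker Red CMTPX staining in the red channel.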 The settings on record: BODIPY lipid droplet fluorescence, 18-24 h; for cell number change: measured here: cell count max response, cells fed with added oleic acid. Summed up:
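Drosophila S3 cells loaded with oleic acid (400 uM, as added) and compounds at several concentrations; lipid droplets imaged by 488-nm laser-scanning cytometry, 500–530 nm intensity and object ratio to cell channel. Percent activity normalized to 20 uM Triacsin C.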
For orientation: In qHTS, concentration-response curves come from the screen itself.

The mark [1] stands for this setting: measured here: lipid fluorescence (Fed channel) AC50, cells fed with added oleic acid.
Where [2] appears, read: measured here: cell number channel AC50, cells fed with added oleic acid.

The other results are listed elsewhere or left out. The main result of the screen is listed elsewhere. These columns were measured beside it and carry no call. Most of these compounds were active or inconclusive in the main read-out, so they are no random draw. Potencies come from curve fits of mixed quality, noted in brackets.

As a reminder, the AC50 is the concentration giving half of the maximal activity seen. Read a high AC50 as activity only at high concentration. For `CCCCNC(=O)Nc1nnc(-c2ccc(OCC)cc2)o1`, the AC50 under setting [1] is 18.4 µM [rising, partial curve].

In the case of `CC(=O)Nc1cccc(C(=O)N/N=C/c2cccnc2)c1`, the cell number change was determined as 9.68%.

For the compound `COc1ccc(-c2ccc(N(C)C)cc2)cc1[C@H]1[C@H]2C=CC[C@@H](C)[C@@H]2C(=O)N1Cc1ccccc1`, the cell number change was 17.3%. In addition, the AC50 under setting [1] was 18.4 µM [rising, single point].

With `COc1ccccc1NC(=O)C1CC(=O)OC1c1ccccc1` (stereo not given), the cell number change is -3.25%.

Consider `CCOCCCNC(=O)C1CCC(CNS(=O)(=O)c2ccc(Cl)cc2)CC1` (stereo not given), for which the AC50 under setting [2] is 1.3 µM [rising, full curve, poor fit] and the AC50 under setting [1] is 4.11 µM [rising, single point].

For the compound `O=C(O)C1CCCN(S(=O)(=O)Cc2ccccc2)C1` (stereo not given), the cell number change is -27.7%. For the same compound, the AC50 under setting [1] is 29.1 µM [falling, single point].

Take `COCCCn1c(SCC(=O)Nc2ccccc2F)nnc1-c1ccoc1C`: the cell number change is -0.855%.

On to `C=CCNc1nnc(SCC(=O)Nc2ccccc2OC)c2ccccc12`, for which the cell number change was determined as 14.4%.

Consider `CC(C)OCCCNC(=O)c1ccc2c(c1)S(=O)(=O)c1ccccc1C2=O`, for which the cell number change was -23.7%. Also, under setting [1], the AC50 is 1.46 µM [falling, full curve].

With `Cc1ccc(Cn2c(SCC(N)=O)nc3c2c(=O)n(C)c(=O)n3C)cc1`, the cell number change amounted to 94.3%. Under setting [2], the half-maximal activity concentration (AC50) was 18.4 µM [rising, single point].

On to `N#C/C(=C/c1ccc(N2CCOCC2)o1)c1ccc(Cl)cc1`, for which the cell number change was -39.3%. In addition, under setting [2], the AC50 is 11.6 µM [falling, partial curve]. Further, the AC50 under setting [1] is 23.1 µM [falling, partial curve].

With `O=C(NCCC1=CCCCC1)c1ccc(F)cc1`, the cell number change stood at 83.3%. Under setting [2], the AC50 was 29.1 µM [rising, single point].

As for `Fc1ccccc1/C=C1\CCCC2=C1NC(=S)NC2c1ccccc1F` (stereo not given), the cell number change came out at 25.8%. The AC50 under setting [1] was 0.13 µM [rising, single point].

Consider `Cc1ccccc1CSCC(=O)NCc1ccco1`, for which the cell number change was -2.24%. In addition, the AC50 under setting [1] is 0.103 µM [falling, full curve, poor fit].

In the case of `COc1ccc(COc2cc(-c3cccc(OC)c3)nc3ccc(NC(=O)C(C)C)cc23)cc1`, the cell number change is -36.3%. Besides, the AC50 under setting [2] is 29.1 µM [falling, single point].

Turning to `NC(=O)CSc1nnc(COc2ccccc2)n1CCc1ccccc1`, the cell number change came out at 19.8%. For the same compound, under setting [1], the AC50 is 2.91 µM [rising, full curve].

Take `O=C(O)Cc1ccc(NC(=O)C2CCCCC2C(=O)O)cc1` (stereo not given): the cell number change was -13.9%.

On to `O=C(c1ccc(S(=O)(=O)Nc2ccccc2)cc1)N1CCC1`, for which the cell number change was -50%. The AC50 under setting [2] is 2.06 µM [falling, partial curve].

Regarding `O=C(c1ccc(=O)[nH]c1)N1CCN(S(=O)(=O)c2ccc(Cl)cc2)CC1`, the cell number change stood at 19.4%. Moreover, the AC50 under setting [2] was 0.146 µM [rising, full curve, poor fit]. Further, the AC50 under setting [1] was 11.6 µM [rising, single point].

For `COc1ccc(-c2csc(N3CCN(c4cc(C)nc5ccccc45)CC3)n2)cc1OC`, the cell number change was -6.99%. The AC50 under setting [1] is 0.82 µM [rising, full curve, poor fit].

In the case of `CC1CCN(c2c([N+](=O)[O-])c(=O)n(-c3ccccc3)c3ccccc23)CC1`, the AC50 under setting [1] was 0.00731 µM [falling, full curve, poor fit].

For the compound `CCCCn1cnc2cc(NCc3ccncc3)ccc21`, the cell number change amounted to 98%. Further, the AC50 under setting [2] is 9.2 µM [rising, partial curve, poor fit]. Also, under setting [1], the AC50 was 8.2 µM [rising, partial curve].

As for `O=C1OC(/C(=C\Nc2ccc(F)cc2F)[N+](=O)[O-])c2ccccc21` (stereo not given), the cell number change is -13.6%. The AC50 under setting [1] was 13 µM [falling, single point].

Turning to `Cc1nn(C)c(C(=O)NC(=S)Nc2ccccc2O)c1Cl`, the cell number change was -16.3%. The AC50 under setting [1] was 9.2 µM [falling, partial curve].

With `CCn1cc(CN2CCN(C)C(CCO)C2)c2ccccc21` (stereo not given), the cell number change worked out at 23.6%. Besides, the AC50 under setting [1] was 29.1 µM [rising, single point].

For `Cc1cccc(C)c1NC(=O)N1CCC(n2c(=O)[nH]c3ccccc32)CC1`, the cell number change worked out at 1.84%. For the same compound, the AC50 under setting [1] is 0.058 µM [rising, full curve, poor fit].

As for `CCN(CC)c1nc(OCCNC(=O)Nc2ccccc2)nc(N(CC)CC)n1`, the cell number change was -31.7%. Besides, under setting [1], the AC50 is 0.82 µM [rising, full curve, poor fit].

Regarding `COCC(C)NCc1ccc(C)cc1C` (stereo not given), the cell number change worked out at 2.5%. The AC50 under setting [1] was 0.103 µM [falling, full curve, poor fit].

On to `CCOc1ccccc1C(=O)NC1CC2CCCC(C1)N2Cc1nnnn1Cc1ccco1` (stereo not given), for which the cell number change is -11.5%.

Consider `Fc1ccccc1Cc1noc(CN2CCC(OCc3cccnc3)CC2)n1`, for which the cell number change worked out at 6.02%. Also, under setting [1], the half-maximal activity concentration (AC50) was 0.651 µM [falling, full curve].

Turning to `CCN(CC)CCNc1nc(-c2ccc(OC(F)F)cc2)c(C)s1`, the AC50 is 0.0291 µM [rising, full curve, poor fit] under setting [2] and 0.116 µM [rising, partial curve, poor fit] under setting [1].

`CCN(CC)S(=O)(=O)c1cc(NC(=O)CN2CCN(c3ccccn3)CC2)ccc1C`: the cell number change is -46.1%. Under setting [2], the AC50 was 5.8 µM [falling, partial curve]. For the same compound, under setting [1], the AC50 was 13 µM [falling, partial curve].

For `Cc1c(Cl)cccc1NC(=S)N1CCN(S(=O)(=O)c2cccs2)CC1`, the cell number change stood at 6.12%. In addition, the AC50 under setting [1] was 4.61 µM [rising, single point].

In the case of `O=C(Cn1ncc2c([nH]c3ccccc32)c1=O)Nc1cccnc1`, the cell number change amounted to 25.2%. In addition, the AC50 under setting [1] is 2.91 µM [falling, single point].

Take `Cc1ccc(-c2ccc(/C=N/NC(=S)Nc3ccccc3)o2)cc1[N+](=O)[O-]`: the cell number change is -8.91%. The AC50 under setting [1] is 4.61 µM [rising, partial curve].

As to `O=C(CCC(=O)N1CCOc2ccc(Cl)cc21)N1CCN(c2ccccn2)CC1`, the cell number change is 19%.

In the case of `O=C(CCCn1c(=S)[nH]c2ccc(Br)cc2c1=O)N1CCN(c2ccccn2)CC1`, the cell number change is -29.9%. The AC50 under setting [1] was 29.1 µM [falling, single point].

With `CCC(C)c1ccc(C(C)NC(=S)NC2CCCCC2)cc1` (stereo not given), the cell number change is 23%.

In the case of `Cn1c2c(c3ccccc31)CCN1CCC[C@]21c1ccccc1`, the cell number change is -28%. The AC50 under setting [1] was 16.4 µM [falling, single point].

In the case of `O=C(CN1C(=O)NC2(CCOc3ccccc32)C1=O)Nc1ccc(F)c(F)c1F` (stereo not given), the cell number change was 61.2%. Further, under setting [2], the AC50 is 29.1 µM [rising, single point]. Moreover, the half-maximal activity concentration (AC50) under setting [1] is 29.1 µM [rising, single point].
